Experimental data as given in article doi:10.1101/2024.07.10.602886.
Results are given in words; binding and its absence hold for the method and conditions named. In cells and extracts the contact can be indirect. Some results given as binding are weak or reduced against the parent protein; the word gives no strength.

Amino acid sequences for entries named in this document (tags omitted).
UniProt Q9H1Y0: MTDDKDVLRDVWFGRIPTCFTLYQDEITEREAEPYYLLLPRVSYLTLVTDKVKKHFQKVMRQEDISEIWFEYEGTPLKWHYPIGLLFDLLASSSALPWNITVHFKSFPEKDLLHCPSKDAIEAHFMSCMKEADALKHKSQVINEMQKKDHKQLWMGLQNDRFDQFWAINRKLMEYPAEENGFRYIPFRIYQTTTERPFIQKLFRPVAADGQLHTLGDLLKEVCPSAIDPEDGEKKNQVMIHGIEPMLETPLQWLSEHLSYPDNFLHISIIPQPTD
UniProt Q92609: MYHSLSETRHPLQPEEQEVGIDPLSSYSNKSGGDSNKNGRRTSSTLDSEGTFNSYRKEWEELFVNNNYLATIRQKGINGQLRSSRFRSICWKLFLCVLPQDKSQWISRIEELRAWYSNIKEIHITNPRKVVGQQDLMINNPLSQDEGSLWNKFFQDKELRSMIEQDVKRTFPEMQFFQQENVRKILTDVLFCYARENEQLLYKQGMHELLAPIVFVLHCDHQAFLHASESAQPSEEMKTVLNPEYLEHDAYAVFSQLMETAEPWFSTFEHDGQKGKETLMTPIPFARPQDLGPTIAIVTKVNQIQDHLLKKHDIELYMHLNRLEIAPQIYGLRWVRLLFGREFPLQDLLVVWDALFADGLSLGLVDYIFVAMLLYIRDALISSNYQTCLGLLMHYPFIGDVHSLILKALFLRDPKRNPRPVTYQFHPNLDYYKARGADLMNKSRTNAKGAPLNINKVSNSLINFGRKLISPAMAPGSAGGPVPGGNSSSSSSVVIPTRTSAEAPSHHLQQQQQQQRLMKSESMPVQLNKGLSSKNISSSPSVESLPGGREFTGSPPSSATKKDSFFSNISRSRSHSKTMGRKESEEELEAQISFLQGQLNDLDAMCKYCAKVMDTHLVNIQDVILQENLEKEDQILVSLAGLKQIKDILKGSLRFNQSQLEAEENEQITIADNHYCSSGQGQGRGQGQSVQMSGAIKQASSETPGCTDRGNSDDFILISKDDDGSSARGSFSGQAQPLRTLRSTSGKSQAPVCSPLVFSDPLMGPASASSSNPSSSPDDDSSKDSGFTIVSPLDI

Tests used:
[1] = target: LC3A (UniProt Q9H492); test: co-IP; LC3A co-IPs blotted for TBC1D5 and VPS35; cells under CASM-inducing treatments and bafilomycin A1
[2] = target: ATG5 (endogenous) (human (endogenous in HeLa)) (UniProt Q9H1Y0); test: co-IP; endogenous ATG5 and endogenous retromer subunits in HeLa cells treated with or without 2 mM LLOMe for 30 min; NP-40 buffer lysates, Dynabeads, immunoblot; which side was precipitated is not stated

Row | binding [1] | binding [2] | Substance
1 | binds |  | TBC1D5 (from UniProt Q92609 1-795)
2 |  | binds | VPS26A (endogenous) (from UniProt O75436 1-327)
